In patent publication US20170224683A1, “TREATMENT OF MELANOMA BY BLOCKING BENZAMIL SENSITIVE ION CHANNELS/EXCHANGERS” (The Board of Trustees of the Leland Stanford Junior …, priority 2014, published 2017):
At least one compound was matched to its structure with a doubt left.

Tests used:
MM485 melanoma cell line [1] = experiment: Matrigel invasion assay, MM485; assay type: cell-based
[2] = system: COLO829 melanoma cell line; experiment: Matrigel invasion assay, COLO829; assay type: cell-based; details: 50 uM
[3] = system: Rac1GTP in CHL1 melanoma cell line; experiment: Rac1GTP confocal IF, CHL1; assay type: cell-based; details: 50 uM, 24 hours
NFKB (PRELA) = experiment: Confocal IF for phospho-Rela in HMB45+ melanocytes of xenograft skin; assay type: in vivo, NOD/SCID gamma mice; details: 5 mg/kg; 10 injections, EOD
STAT3 (PSTAT3) = experiment: Confocal IF for phospho-STAT3 in HMB45+ melanocytes of xenograft skin; assay type: in vivo, NOD/SCID gamma mice; details: 5 mg/kg; 10 injections, EOD
CHL1 melanoma cell line [4] = experiment: Matrigel invasion assay, CHL1; assay type: cell-based
primary V12Rac1 MCs = experiment: Xenograft model of V12 Rac1 driven invasion and metastasis from skin; assay type: in vivo, NOD/SCID mice; details: 10 mg/kg IP for 4 weeks
[5] = system: STAT3 in MM485 melanoma cell line; experiment: Nuclear translocation of activated STAT3 by confocal IF, MM485; assay type: cell-based; details: 50 μM, 24 hours
[6] = system: V12 Rac1 mutant primary foreskin-derived melanocytes; experiment: Matrigel invasion assay, V12 Rac1 melanocytes; assay type: cell-based; details: 50 uM Benzamil; 48 hours, DMEM, 10% FBS as chemo attractant
[7] = system: STAT3 in COLO829 melanoma cell line; experiment: Nuclear translocation of activated STAT3 by confocal IF, COLO829; assay type: cell-based; details: 50 μM, 24 hours
[8] = system: V12 Rac1 primary foreskin-derived melanocytes; experiment: Xenograft of organotypic skin equivalents: invasion and lung metastasis; assay type: in vivo, NOD/SCID gamma mice; details: 5 mg/kg IP every other day for 20 days
[9] = system: NFKB (RelA) in MM485 melanoma cell line; experiment: Nuclear translocation of activated RelA by confocal IF, MM485; assay type: cell-based; details: 50 μM, 24 hours
[10] = system: STAT3 in CHL1 melanoma cell line; experiment: Nuclear translocation of activated STAT3 by confocal IF, CHL1; assay type: cell-based; details: 50 μM, 24 hours
[11] = system: COLO829 melanoma cell line; experiment: MTT proliferation assay, COLO829; assay type: cell-based; details: 50 uM
Description: (§1) FIG. 3A-3D: Benzamil reduce invasion and proliferation of melanoma cell lines expressing increased Rac1GTP. […] Stimulation with Benzamil at 50 uM was not toxic, but reduced proliferation in COLO829,MM485,CHL1 melanoma cell lines similar to V12 Rac1 mutant primary melanocytes FIG. 3D.
(§2) Benzamil reduce invasion and proliferation of melanoma cell lines expressing increased Rac1GTP. […] Stimulation with Benzamil at 50 μM was not toxic, but reduced proliferation in COLO829,MM485,CHL1 melanoma cell lines similar to V12 Rac1 mutant primary melanocytes.
(§3) MTT proliferation assay. 25000 melanocytes were plated in each well in a 96 well plate, and incubated with 100 ul DMEM with 10% FBS 1% AA for 24 hours. 10 ul MTT reagent (MTT proliferation assay, ATCC, Manassas, US) was added for 4 hours, 100 ul detergent was added to each well for 2 hours., and absorbance read at 570 nm (Spectramax M5, Molecular Devices, US), normalized to cell-free control absorbance.

[12] = system: Rac1MCs (V12 Rac1 melanocytes); experiment: SQ-injection of luciferase-infected Rac1MCs into mice; assay type: in vivo, NOD/SCID mice
[13] = system: V12 Rac1 mutant primary foreskin-derived melanocytes; experiment: MTT proliferation assay, V12 Rac1 melanocytes; assay type: cell-based
Description: FIG. 1A-1C: Benzamil inhibits V12 Rac1 driven melanocyte invasion and proliferation in vitro. […] Invasion was abolished in conditions treated with 50 uM Benzamil (FIG. 1A, FIG. 1B).
Invasion was abolished in conditions treated with 50 μM Benzamil.
as §3

[14] = system: Rac1GTP in COLO829 melanoma cell line; experiment: Rac1GTP confocal IF, COLO829; assay type: cell-based; details: 50 uM, 24 hours
[15] = system: Rac1GTP in MM485 melanoma cell line; experiment: Rac1GTP confocal IF, MM485; assay type: cell-based; details: 50 uM, 24 hours
MM485 melanoma cell line [16] = experiment: MTT proliferation assay, MM485; assay type: cell-based
Description: as §1, §2, §3

[17] = system: NFKB (RelA) in COLO829 melanoma cell line; experiment: Nuclear translocation of activated RelA by confocal IF, COLO829; assay type: cell-based; details: 50 μM, 24 hours
COLO829 (V600E mutant) = experiment: SQ-injection of luciferase-infected COLO829 into mice; assay type: in vivo, NOD/SCID mice
CHL1 melanoma cell line [18] = experiment: MTT proliferation assay, CHL1; assay type: cell-based
Description: as §1, §2, §3

[19] = system: NFKB (RelA) in CHL1 melanoma cell line; experiment: Nuclear translocation of activated RelA by confocal IF, CHL1; assay type: cell-based; details: 50 μM, 24 hours
[20] = compared to vehicle-treated V12Rac1 xenograft mice

`NC(=NCc1ccccc1)NC(=O)c1nc(Cl)c(N)nc1N` [Benzamil, benzyl amiloride] was tested, and the “Invasion compared with PLX-4032” value (MM485 melanoma cell line [1]; MM485 (non-BRAF V600E mutant)) was “reduced more than PLX-4032”, the invasion (MM485 melanoma cell line [1]; MM485, 50 uM) was “significantly reduced” and the “Invasion compared with Rac1 inhibitor #553502, Calbiochem” value (MM485 melanoma cell line [1]; MM485, Rac1 inhibitor 75 uM) was “comparable”. The invasion [2] was “significantly reduced”, the Rac1GTP subcellular localization [3] was “redistributed” and the “NFKB activation in HMB45+ cells in skin” value (NFKB (PRELA)) was “reduced”. For the same molecule, the “STAT3 activation in HMB45+ cells in skin” value (STAT3 (PSTAT3)) was “reduced”, the “Invasion compared with PLX-4032” value (CHL1 melanoma cell line [4]; CHL1 (non-BRAF V600E mutant)) was “reduced more than PLX-4032” and the invasion (CHL1 melanoma cell line [4]; CHL1, 50 uM) was “significantly reduced”. For the same molecule, the “Invasion compared with Rac1 inhibitor #553502, Calbiochem” value (CHL1 melanoma cell line [4]; CHL1, Rac1 inhibitor 75 uM) was “comparable”, the “V12MCs metastasizing to lungs (HMB45+ cells per 20× field)” value (primary V12Rac1 MCs) was “significant reduction” and the “invasion (dermal presence of HMB-45+ cells)” value (primary V12Rac1 MCs) was “strongly reduced”. For the same molecule, the “HMB45+ cells in lungs” value (primary V12Rac1 MCs; [20]) was “strongly diminished”, the “cell infiltrates in lungs (hematoxylin & eosin)” value (primary V12Rac1 MCs; [20]) was “markedly reduced” and the “STAT3 activation (phosphorylation, nuclear translocation)” value [5] was “diminished”. For the same molecule, the invasion [6] was “abolished”, the “STAT3 activation (phosphorylation, nuclear translocation)” value [7] was “diminished” and the “primary invasion from the skin (HMB45+ cells sub-GoH3)” value ([8]; grafts harvested on day 21) was “reduce”. The “lung metastasis (foci of HMB45+ cells in lungs)” value ([8]; lungs harvested on day 21) was “reduce”, the “NFKB activation (RelA phosphorylation, nuclear translocation)” value [9] was “diminished” and the “STAT3 activation (phosphorylation, nuclear translocation)” value [10] was “diminished”. The proliferation [11] was “reduced”, the “invasion into underlying tissue” value ([12]; Rac1MC, 10 mg/kg IP daily) was “prevented” and the primary tumor growth ([12]; Rac1MC, 10 mg/kg IP daily) was “reduced”. The “lung metastasis (ex-vivo bioluminescence)” value ([12]; V12, after 5 weeks of Benzamil IP) was “significantly reduced”, the “proliferation-rate (absorbance 570 nanometer)” value ([13]; 50 uM) was “significantly reduced” and the “proliferation-rate (absorbance 570 nanometer)” value ([13]; 100 uM) was “significantly reduced”. For the same molecule, the Rac1GTP subcellular localization [14] was “redistributed”, the Rac1GTP subcellular localization [15] was “redistributed” and the “proliferation compared with PLX-4032” value (MM485 melanoma cell line [16]; MM485 (non-BRAF V600E mutant)) was “reduced more than PLX-4032”. The proliferation (MM485 melanoma cell line [16]; MM485, 50 uM) was “reduced”, the “proliferation compared with Rac1 inhibitor #553502, Calbiochem” value (MM485 melanoma cell line [16]; MM485, Rac1 inhibitor 75 uM) was “comparable” and the “NFKB activation (RelA phosphorylation, nuclear translocation)” value [17] was “diminished”. The “invasion into underlying tissue” value (COLO829 (V600E mutant); 10 mg/kg IP daily) was “prevented”, the primary tumor growth (COLO829 (V600E mutant); 10 mg/kg IP daily) was “reduced” and the “lung metastasis (ex-vivo bioluminescence)” value (COLO829 (V600E mutant); after 5 weeks of Benzamil IP) was “significantly reduced”. For the same molecule, the “proliferation compared with PLX-4032” value (CHL1 melanoma cell line [18]; CHL1 (non-BRAF V600E mutant)) was “reduced more than PLX-4032”, the proliferation (CHL1 melanoma cell line [18]; CHL1, 50 uM) was “reduced” and the “proliferation compared with Rac1 inhibitor #553502, Calbiochem” value (CHL1 melanoma cell line [18]; CHL1, Rac1 inhibitor 75 uM) was “comparable”. The “NFKB activation (RelA phosphorylation, nuclear translocation)” value [19] was “diminished”.
